For two substances, foam character results are on record in patent US10265257B2, “Personal care composition” (Innospec Limited, priority 2007, dated 2019).

A short description of the data set: Foaming test in capped measuring cylinder. It counts as physicochemical. The conditions noted are these: graduated cylinder, after 10 inversions.

Turning to sodium cocoylmethylisethionate [SCMI], the foam character entry is “rich and creamy”.
The value for “sodium laureth sulfate [SLES, reference compound]” was “open and “watery””.
